The text below walks through data of PMC10693047.

The experiment has as its target prion protein (human (endogenous in SH-SY5Y)) (UniProt P04156). In words: co-IP.

These are yes or no findings as the source states them, for the method shown. In cells and extracts the contact can be indirect. Some binding calls cover weakened binding; strength is not graded here.

exportin-5 (from UniProt Q9HAV4 1-1204): the binding result is “binds”.
